Results published in PubChem BioAssay (NCATS).
Where “and” joins values, the source holds several entries; their conditions need not be identical. Identical values can stand only once. The list shows a part of the results. Further columns of the screen follow, without active or inactive calls. Most of these compounds were active or inconclusive in the main read-out, so they are no random draw.

Experiment: qHTS assay for small molecule agonists of retinoid X receptor alpha signaling (AID 588544)
Settings: HEK293T RXRa-UAS-bla, beta-lactamase reporter, 18 h; 530 nm emission

Question: Which max response does the source give for `CC(=O)[O-].CC(=O)[O-].O.O.[Cd+2]` here?
Answer: 48.4%

Question: Which max response does the source give for `CC[C@H](C)[C@H]1O[C@]2(C=C[C@@H]1C)C[C@@H]1C[C@@H](C/C=C(\C)[C@@H](O[C@H]3C[C@H](OC)[C@@H](O[C@H]4C[C@H](OC)[C@@H](NC)[C@H](C)O4)[C@H](C)O3)[C@@H](C)/C=C/C=C3\CO[C@@H]4[C@H](O)C(C)=C[C@@H](C(=O)O1)[C@]34O)O2` here?
Answer: -55.1%

Question: Which max response does the source give for `CNC(=O)Oc1cc(C)c(SC)c(C)c1` here?
Answer: -34.7%

Question: Which max response does the source give for `CC(C)Oc1cc(-n2nc(C(C)(C)C)oc2=O)c(Cl)cc1Cl` here?
Answer: 32.7%

Question: Which max response does the source give for `C[C@H]1[C@H](c2ccc(Cl)cc2)SC(=O)N1C(=O)NC1CCCCC1` here?
Answer: 27.5%

Question: With `COc1ccc(-c2ccccc2)cc1NNC(=O)OC(C)C` as the molecule, how does the max response read?
Answer: -3.14%

Question: For `CCCCSP(=O)(SCCCC)SCCCC`, which max response is on record?
Answer: 20%

Question: Which max response does the source give for `S=C([S-])NCCNC(=S)[S-].S=C([S-])NCCNC(=S)[S-].[Mn+2].[Zn+2]` here?
Answer: -1.63%

Question: For `O=C(O)c1ccccc1Nc1cccc(C(F)(F)F)c1`, which max response is on record?
Answer: 43.1%

Question: For `COC(=O)c1ccccc1C(=O)OC`, which max response is on record?
Answer: -12%

Question: For `CCNc1nc(Cl)nc(NC(C)(C)C)n1`, which max response is on record?
Answer: -1.48%

Question: Which max response does the source give for `CC(C)C(C(=O)OC(C#N)c1cccc(Oc2ccccc2)c1)c1ccc(Cl)cc1` (configuration not stated) here?
Answer: 9.63%

Question: Which max response does the source give for `Brc1ccc(Oc2ccc(Br)cc2Br)c(Br)c1` here?
Answer: -4.91%

Question: With `O=S(=O)(O)C(F)(F)C(F)(F)C(F)(F)C(F)(F)F` as the molecule, how does the max response read?
Answer: 18.3% and -20.2%

Question: For `CC(C)=CC1C(C(=O)OCc2coc(Cc3ccccc3)c2)C1(C)C` (configuration not stated), which max response is on record?
Answer: -3.83%

Experiment: qHTS assay for small molecule antagonists of retinoid X receptor alpha signaling (AID 588546);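 note: cells stimulated with 9-cis-retinoic acid as agonist; % is set by controls: 0 for no effect and ±100 for the full control effect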
Settings: HEK293T RXRa-UAS-bla, beta-lactamase ratio, antagonist mode; measured here: W530 green channel, cytotoxicity proxy
In short: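 Beta-lactamase reporter inhibition, read as CCF4 fluorescence ratio (ex 405, em 460/530 nm) after 2 h at RT. HEK293T UAS-bla cells, 2500/well, were stimulated with 9-cis-RA at 500 or 100 nM final alongside test compound for 18 h at 37 C.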

Question: Which max response does the source give for `CC(=O)[O-].CC(=O)[O-].O.O.[Cd+2]` here?
Answer: 14.3%

Question: For `CCNc1nc(NC(C)(C)C)nc(SC)n1`, which max response is on record?
Answer: 12.7%

Question: Which max response does the source give for `CC[C@H](C)[C@H]1O[C@]2(C=C[C@@H]1C)C[C@@H]1C[C@@H](C/C=C(\C)[C@@H](O[C@H]3C[C@H](OC)[C@@H](O[C@H]4C[C@H](OC)[C@@H](NC)[C@H](C)O4)[C@H](C)O3)[C@@H](C)/C=C/C=C3\CO[C@@H]4[C@H](O)C(C)=C[C@@H](C(=O)O1)[C@]34O)O2` here?
Answer: -39.3%

Question: For `CNC(=O)Oc1cc(C)c(SC)c(C)c1`, which max response is on record?
Answer: -16.5%

Question: Which max response does the source give for `C/C=C/C=O` here?
Answer: -5.56%

Question: Which max response does the source give for `CCC(C)(c1ccc(O)cc1)c1ccc(O)cc1` here?
Answer: -11.6%

Question: For `CC(C)Oc1cc(-n2nc(C(C)(C)C)oc2=O)c(Cl)cc1Cl`, which max response is on record?
Answer: -13.1%

Question: For `C[C@H]1[C@H](c2ccc(Cl)cc2)SC(=O)N1C(=O)NC1CCCCC1`, which max response is on record?
Answer: 1.32%

Question: For `COc1ccc(-c2ccccc2)cc1NNC(=O)OC(C)C`, which max response is on record?
Answer: -5.35%

Question: For `CCOC(=O)[C@H](C)Oc1ccc(Oc2nc3ccc(Cl)cc3o2)cc1`, which max response is on record?
Answer: -12.3%

Question: Which max response does the source give for `CCCCSP(=O)(SCCCC)SCCCC` here?
Answer: 15.1%

Question: With `CCCCCOC(=O)c1ccccc1C(=O)OCCCCC` as the molecule, how does the max response read?
Answer: -9.33%

Question: With `S=C([S-])NCCNC(=S)[S-].S=C([S-])NCCNC(=S)[S-].[Mn+2].[Zn+2]` as the molecule, how does the max response read?
Answer: 14.5%

Question: Which max response does the source give for `CCc1cnc(C2=NC(C)(C(C)C)C(=O)N2)c(C(=O)O)c1` (configuration not stated) here?
Answer: -9.93%

Question: With `CN/C(=N/[N+](=O)[O-])NCC1CCOC1` (configuration not stated) as the molecule, how does the max response read?
Answer: 6.24%

Question: For `CC(C)[C@H](C(=O)O[C@H](C#N)c1cccc(Oc2ccccc2)c1)c1ccc(Cl)cc1`, which max response is on record?
Answer: -9.23%

Question: Which max response does the source give for `Clc1ccc2ccccc2c1` here?
Answer: -17.8%

Question: For `CCNCC`, which max response is on record?
Answer: -16.5%

Question: Which max response does the source give for `COC(=O)c1ccccc1C(=O)OC` here?
Answer: -7.84%

Question: For `CCNc1nc(Cl)nc(NC(C)(C)C)n1`, which max response is on record?
Answer: 4.08%

Question: For `CCN(CC)c1nc(C)cc(OP(=S)(OC)OC)n1`, which max response is on record?
Answer: -3.68%

Question: With `O=c1[nH]c(=O)n(Cl)c(=O)n1Cl` as the molecule, how does the max response read?
Answer: 7.08%

Question: With `Cc1cc(C)nc(NC(=O)NS(=O)(=O)c2ccccc2C(=O)OC2COC2)n1` as the molecule, how does the max response read?
Answer: -2.65%

Question: Which max response does the source give for `S=C(S)NCCNC(=S)S` here?
Answer: 15.3%

Question: Which max response does the source give for `CC(C)C(C(=O)OC(C#N)c1cccc(Oc2ccccc2)c1)c1ccc(Cl)cc1` (configuration not stated) here?
Answer: -11.5%

Question: Which max response does the source give for `COc1ccccc1N` here?
Answer: -10.5%

Question: For `CCOC(=O)C(C)Oc1ccc(Oc2nc3ccc(Cl)cc3o2)cc1` (configuration not stated), which max response is on record?
Answer: 13%

Question: With `Brc1ccc(Oc2ccc(Br)cc2Br)c(Br)c1` as the molecule, how does the max response read?
Answer: -1.71%

Question: With `O=C(O)[C@@H]1[C@H](C(=O)O)[C@@]2(Cl)C(Cl)=C(Cl)[C@]1(Cl)C2(Cl)Cl` as the molecule, how does the max response read?
Answer: -3.69%

Question: For `O=S(=O)(O)C(F)(F)C(F)(F)C(F)(F)C(F)(F)F`, which max response is on record?
Answer: -5.42% and -3.46%

Question: For `O=S(=O)(O)C(F)(F)C(F)(F)C(F)(F)C(F)(F)C(F)(F)C(F)(F)F`, which max response is on record?
Answer: 6.79%

Question: With `O=CNC(N1CCN(C(NC=O)C(Cl)(Cl)Cl)CC1)C(Cl)(Cl)Cl` (configuration not stated) as the molecule, how does the max response read?
Answer: 1.51%

Question: For `CCC[N+](=O)[O-]`, which max response is on record?
Answer: -5.25%

Question: For `CCC(CC)Nc1c([N+](=O)[O-])cc(C)c(C)c1[N+](=O)[O-]`, which max response is on record?
Answer: -18.4%

Question: Which max response does the source give for `C1=Cc2cccc3cccc1c23` here?
Answer: -2.5%

Question: With `Brc1cccc(-c2ccccc2)c1` as the molecule, how does the max response read?
Answer: -3.8%

Question: For `CCCSC(=O)N(CCC)CCC`, which max response is on record?
Answer: -18.8%
